Most values lie at the floor of the assay. Slopes are relative: functional sequences can read slightly below zero. Bounds are passed on as bounds.

In the data set the test system is Saccharomyces cerevisiae PS128 hsf1 delta, HSF1(1-493) fusion. In words: growth estimate (transactivation domain function in HSF1 fusion, heat-shock survival) (a.u. (slope of normalised read count over time)); higher = stronger growth at 37°C, i.e. more transactivation activity. As to conditions: library: random library. How it is done: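 Random 60-nt DNA library encoding peptides of up to 20 aa, fused to the C-terminus of yeast HSF1 residues 1-493 (C-terminal TAD deleted) and expressed from the native HSF1 promoter on a CEN plasmid in hsf1-deleted S. cerevisiae PS128. Cells were selected at 37°C on -trp 5-FOA plates for 0, 2, 4, 6 and 8 days and amplicons were sequenced. Growth estimate is the slope of a robust linear fit of total-sum-normalised read counts (normalised to the first time point) over time, using at least 2 replicates. Sequences are classed functional (TAD activity) above a threshold of -0.13, set from stop-codon control sequences.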
As for GGVFVSVAPSRHDRVAARRS, the growth estimate is below -0.25.

For PCGQVPSSRCTSCSGKQRI, the growth estimate was below -0.25.

Regarding FAGSTGDRSPFVHLLWQSRK, the growth estimate is below -0.25.

As for WGGVEWRGFRI, the growth estimate was below -0.25.

For the substance PVHGVGDHGGSQWVVVLCLN, the growth estimate is below -0.25.

With ESCIVRHAWLTDSVSLSRSG, the growth estimate was below -0.25.

As for LKAGSVTAIAHGGQCGSKQR, the growth estimate was below -0.25.

With VFYRFSKRGLVVSFYGHHLP, the growth estimate was below -0.25.

As to GSGC, the growth estimate is below -0.25.

For the substance LLIPFIGLTVSSAVRYLKYR, the growth estimate is -0.248.

Consider GVLE, for which the growth estimate was below -0.25.

As to HRSPSPFARLSFQYPSRAGS, the growth estimate is below -0.25.

As to IERSRLDCGDQIFRGVGHYR, the growth estimate is below -0.25.

Take YLHSYLPVGGSPLSPHLWGT: the growth estimate is below -0.25.

As to VPFESSVWPATWCVKR, the growth estimate was below -0.25.

VSK: the growth estimate was below -0.25.

KLDVWRGLTNSISGPIGSGI: the growth estimate is below -0.25.

In the case of SLVE, the growth estimate is below -0.25.

With SWA, the growth estimate was below -0.25.

In the case of TLLFSYPGSILPGCACQLVG, the growth estimate was below -0.25.

As for HLPSWCWALLS, the growth estimate is below -0.25.

On to IPSEEASSTA, for which the growth estimate is below -0.25.

LDQAYALTQLLYTDIRELSS: the growth estimate was 1.97.

As to FVP, the growth estimate was -0.24.

In the case of LGISSRSPREISIVKKRLGG, the growth estimate is below -0.25.

LGELTVYCVMGYGRRRYSQA: the growth estimate is below -0.25.

On to LVYGQ, for which the growth estimate was below -0.25.

For KDREVLNRRRDIY, the growth estimate is below -0.25.

Take CGGTSW: the growth estimate is below -0.25.

As for GYNSSGDTGPGARTFLLGSM, the growth estimate is below -0.25.

TCRDSA: the growth estimate was below -0.25.

For IPPANRPTPDTLYVLVQPRF, the growth estimate was below -0.25.

With TRRRTNYALVEHPLHRRNRL, the growth estimate is below -0.25.

Take QGFGRLKLCTCCQCP: the growth estimate is below -0.25.

LEASPLS: the growth estimate was below -0.25.

Consider STLLLIRSVL, for which the growth estimate was below -0.25.

Consider YDGALWGHSLSHYRQCSPV, for which the growth estimate is below -0.25.

For LVIAFPNTAGKTSVAGSVPF, the growth estimate is below -0.25.

As to DGAAGIDWLREYAERITEAG, the growth estimate was below -0.25.

Turning to GRHRIRRQR, the growth estimate was below -0.25.

Regarding FPPRVSSGRIA, the growth estimate was below -0.25.

For the substance THPFGCLWGS, the growth estimate is below -0.25.

Consider LEPLAPY, for which the growth estimate is below -0.25.

In the case of GTPSDKAIYTSSLDP, the growth estimate is below -0.25.

Turning to SRHE, the growth estimate is below -0.25.

For QSQALPKTVGP, the growth estimate is below -0.25.

FRASYRL: the growth estimate was below -0.25.

As for VLCYLRLSGRPCSSTKRQVP, the growth estimate is below -0.253.

For the substance LWGGVGVTTDE, the growth estimate was -0.211.

In the case of VQFELQAHGL, the growth estimate was below -0.25.

For AFI, the growth estimate was below -0.25.

For KKL, the growth estimate was below -0.25.

Take STSNDNLNKVPRV: the growth estimate was -0.231.

Turning to SHGKPWTTFVNCHVLHPTSA, the growth estimate is below -0.25.

Turning to LSGVIRRSLHLILGYLDVPC, the growth estimate was below -0.25.

TTTSAKLRNTEFHDPPAVSV: the growth estimate was below -0.25.

As to GVLIYPQFNVVNCLRGFYPG, the growth estimate is below -0.25.

In the case of LGTCFAANWELRRYVLR, the growth estimate was below -0.25.

ELNC: the growth estimate is below -0.25.

For the substance LALCRCIRL, the growth estimate is below -0.25.

With VDSG, the growth estimate is below -0.25.

As for ALDTRGSGRVMYWACVRSYG, the growth estimate is below -0.25.

KVQVQRRAISRAAS: the growth estimate is below -0.25.

On to SQAIIPDIDGLLSWWNEAYA, for which the growth estimate is below -0.25.

For the substance RGSPKHATQWSMRVRTGGPA, the growth estimate is -0.243.

For the substance HHTVVRRHWRPVLSA, the growth estimate is below -0.25.

Regarding NELFLDAIGTAGHGLVSLVG, the growth estimate is below -0.25.

Turning to ATLFGKIHHYVGFQQGDPLA, the growth estimate is below -0.25.

Consider GTEMLGARRLNVKVQPYTS, for which the growth estimate was below -0.25.

Consider ERSNRSWLVGLRRRPSGSWR, for which the growth estimate is below -0.25.

For LHGILVLQVTEP, the growth estimate is below -0.25.

As to QRFSLLLLIGPIPSKYSSTQ, the growth estimate was below -0.25.

In the case of AISSLPREVEV, the growth estimate is below -0.25.

Take TCVGHIRRTRA: the growth estimate was below -0.25.

Take LKHES: the growth estimate is below -0.25.

For WNQAFARERSVKKRAVYELT, the growth estimate is below -0.25.
